Source: PubChem BioAssay AID2685 (National Center for Advancing Translational Sciences (NCATS), 2010)
The list shows a part of the results. Shown are side measurements of this screen, not its main read-out; they come without a call. The list favours compounds with an active or inconclusive main result. Potencies come from curve fits of mixed quality, noted in brackets.

Test: qHTS Assay for Lipid Storage Modulators in Drosophila S3 Cells;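 on cell number change: cells counted by Cell Tracker Red CMTPX staining in the red channel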
Details: BODIPY lipid droplet fluorescence, 18-24 h; for cell number change: measured here: cell count max response, cells fed with added oleic acid
How it was run: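 Drosophila S3 cells got compounds at several concentrations plus oleic acid (400 uM solution). Laser-scanning cytometry with 488 nm excitation read lipid droplets at 500-530 nm and cells at 575-640 nm. Percent activity was relative to 20 uM Triacsin C.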

[1] = measured here: lipid fluorescence (Fed channel) AC50, cells fed with added oleic acid
[2] = measured here: cell number channel AC50, cells fed with added oleic acid

Structure (SMILES): Cc1nnc(SCC(=O)Nc2cccc(S(=O)(=O)N(C)c3ccccc3)c2)s1
- cell number change: -2.03%
- AC50 [1]: 23.1 µM [falling, single point]

Structure (SMILES): COc1ccc(-c2cc(C)no2)cc1S(=O)(=O)N1CC(=O)Nc2ccccc21
- cell number change: -0.298%
- AC50 [1]: 0.116 µM [rising, full curve, poor fit]

Structure (SMILES): COC(=O)c1ccccc1NC(=O)CSc1n[nH]c(-c2ccco2)n1
- cell number change: 9.66%
- AC50 [1]: 6.51 µM [falling, single point]

Structure (SMILES): Cc1ccc(NC(=O)c2cc3nc(C)cc(C)n3n2)cc1
- AC50 [2]: 2.59 µM [rising, partial curve]
- AC50 [1]: 0.58 µM [rising, single point]

Structure (SMILES): CCOc1ccccc1C(=O)Nc1ccccc1-c1ccccc1
- cell number change: -0.282%
- AC50 [1]: 4.61 µM [rising, partial curve, poor fit]

Structure (SMILES): Cc1cccnc1NC(=O)c1ccc2nc(N)sc2c1
- AC50 [2]: 0.13 µM [rising, full curve, poor fit]
- AC50 [1]: 1.16 µM [rising, full curve]

Structure (SMILES): COc1ccc(CNc2cccc(C)n2)c(O)c1
- cell number change: 3.63%
- AC50 [1]: 0.366 µM [rising, full curve, poor fit]

Structure (SMILES): CC(NC(=O)COC(=O)c1cc(Cl)ccc1O)C1CC2CCC1C2 (centres undefined)
- cell number change: -38.4%
- AC50 [2]: 3.66 µM [falling, full curve]
- AC50 [1]: 13 µM [falling, partial curve, poor fit]

Structure (SMILES): CSCCC(NC(=O)c1ccco1)C(=O)O (centres undefined)
- cell number change: -42.5%
- AC50 [2]: 2.59 µM [falling, full curve]
- AC50 [1]: 0.651 µM [falling, full curve, poor fit]

Structure (SMILES): Cn1c(=O)c2cc(S(=O)(=O)NCCC(=O)Nc3ccc(Cl)cc3)ccc2n(C)c1=O
- cell number change: 26.4%
- AC50 [1]: 20.6 µM [rising, single point]

Structure (SMILES): CC1=NN(c2ccc(C)c(C)c2)C(=O)/C1=C\C=C\c1ccc([N+](=O)[O-])o1
- cell number change: -64.3%
- AC50 [2]: 23.1 µM [falling, single point]
- AC50 [1]: 29.1 µM [falling, partial curve, poor fit]

Structure (SMILES): COc1cc(/C=N/NC(=O)c2cccc(N3CCCC3=O)c2)ccc1O
- cell number change: 32.1%
- AC50 [2]: 20.6 µM [rising, single point]
- AC50 [1]: 29.1 µM [rising, partial curve, poor fit]

Structure (SMILES): CNC(=O)CCc1[nH]c2ccccc2c1Sc1ccccc1
- cell number change: -18.5%
- AC50 [2]: 0.00411 µM [rising, full curve, poor fit]
- AC50 [1]: 5.17 µM [rising, full curve]

Structure (SMILES): NC(=O)c1ccsc1NC(=O)CCS(=O)(=O)c1ccccc1
- cell number change: -5.54%

Structure (SMILES): CN(C)c1nc(NCc2ccccc2)nc(N/N=C/c2ccccc2F)n1
- AC50 [1]: 0.00461 µM [falling, full curve, poor fit]

Structure (SMILES): CCOCCCNC1=C(Cl)C(=O)c2ccccc2C1=O
- cell number change: -42.4%
- AC50 [2]: 18.4 µM [falling, single point]
- AC50 [1]: 29.1 µM [falling, single point]

Structure (SMILES): COc1ccc(CCn2c(=S)[nH]c3cc(C(=O)NCc4ccco4)ccc3c2=O)cc1OC
- cell number change: -28.9%
- AC50 [1]: 3.66 µM [falling, single point]

Structure (SMILES): CC(=O)c1ccc(NC(=O)Nc2cccnc2)cc1
- cell number change: 28.6%
- AC50 [1]: 29.1 µM [rising, single point]

Structure (SMILES): COc1ccccc1CNC(=O)CNC(=O)c1cn(-c2ccccc2OC)c(=O)c2ccccc12
- AC50 [2]: 6.51 µM [rising, single point]
- AC50 [1]: 4.11 µM [rising, single point]

Structure (SMILES): COc1cc2c(cc1OC)CN(C(=O)c1oc3ccccc3c1C)CC2
- cell number change: -5.71%
- AC50 [1]: 29.1 µM [rising, single point]

Structure (SMILES): COc1ccc(OC)c(NC(=O)c2nc(S(=O)(=O)Cc3ccccc3)ncc2Cl)c1
- cell number change: 10.2%
- AC50 [2]: 6.51 µM [falling, single point]
- AC50 [1]: 0.92 µM [falling, full curve]

Structure (SMILES): COc1ccc(OC)c(NC(=O)CSc2nc3ccccc3c(=O)n2CCNC(C)=O)c1
- cell number change: -20.9%
- AC50 [1]: 18.4 µM [falling, single point]

Structure (SMILES): CCc1ccc(/C=C/c2c([N+](=O)[O-])c(=O)n(C)c(=O)n2C)cc1
- cell number change: -18.9%
- AC50 [1]: 3.66 µM [falling, partial curve]

Structure (SMILES): O=C(O)CCCNC(=O)OCc1ccccc1
- cell number change: 15.5%
- AC50 [1]: 0.116 µM [falling, full curve, poor fit]

Structure (SMILES): CCSc1nc2ccccc2n1S(=O)(=O)c1ccccc1
- cell number change: 1.37%

Structure (SMILES): O=C(c1ccc2[nH]ccc2c1)N1CCCC(Nc2ccccc2)C1 (centres undefined)
- cell number change: -16.4%
- AC50 [1]: 4.11 µM [rising, full curve, poor fit]

Structure (SMILES): COc1ccc(NS(=O)(=O)c2cc(N/C(=N\S(=O)(=O)c3ccccc3)c3ccc(F)cc3)ccc2Cl)cc1
- cell number change: 13.3%

Structure (SMILES): CCNc1nc(NCC)n2c(SCc3ccc(F)cc3)nnc2n1
- cell number change: -0.583%

Structure (SMILES): Cc1ccc(C(=O)c2nc3c(n2O)CCCC3)cc1
- cell number change: -9.05%
- AC50 [2]: 4.61 µM [falling, partial curve, poor fit]

Structure (SMILES): O=C(Nc1ccc(F)cc1F)c1cc2ncc(CCCl)cn2n1
- cell number change: -0.792%
- AC50 [1]: 0.517 µM [falling, full curve, poor fit]

Structure (SMILES): CC(C)(C)NS(=O)(=O)c1ccc(NS(C)(=O)=O)cc1
- cell number change: -7.61%
- AC50 [2]: 0.259 µM [falling, full curve, poor fit]
- AC50 [1]: 1.3 µM [falling, partial curve]

Structure (SMILES): COC1=CC(=Cc2c(N)n3nc(CC(=O)N4CCCCC4)sc3nc2=O)C=C(OC)C1=O
- cell number change: -98.9%
- AC50 [2]: 3.26 µM [falling, full curve]
- AC50 [1]: 1.84 µM [falling, full curve]

Structure (SMILES): O=C(CCCc1nc(-c2ccccc2)no1)NCc1cccnc1
- cell number change: -30%
- AC50 [2]: 9.2 µM [falling, partial curve]
- AC50 [1]: 10.3 µM [falling, partial curve, poor fit]

Structure (SMILES): O=C(COc1ccc(Cl)cc1)Nc1ccc(C(=O)O)cc1NC(=O)COc1ccc(Cl)cc1
- cell number change: 26.9%
- AC50 [1]: 0.00461 µM [rising, full curve, poor fit]

Structure (SMILES): CC(C)C(NS(=O)(=O)c1cccc2nsnc12)C(=O)NCCC1=CCCCC1 (centres undefined)
- cell number change: -30.4%
- AC50 [2]: 9.2 µM [falling, partial curve, poor fit]
- AC50 [1]: 23.1 µM [falling, partial curve, poor fit]

Structure (SMILES): CCc1nc(SCC(=O)N2CCCc3ccccc32)c2oc3ccccc3c2n1
- cell number change: -14.3%
- AC50 [2]: 6.51 µM [rising, single point]

Structure (SMILES): COc1cccc(N=C2SC(CC(=O)Nc3ccccc3)C(=O)N2Cc2ccccn2)c1 (centres undefined)
- cell number change: 75.6%
- AC50 [2]: 23.1 µM [rising, single point]

Structure (SMILES): CCCCc1cc(O)c(CCCC)c(O)c1
- cell number change: -39.6%
- AC50 [2]: 16.4 µM [falling, single point]
- AC50 [1]: 16.4 µM [falling, single point]

Structure (SMILES): COc1ccccc1NC(=O)CN(c1ccc([N+](=O)[O-])cc1)S(=O)(=O)c1ccccc1
- cell number change: 19.5%
- AC50 [1]: 2.91 µM [rising, partial curve, poor fit]

Structure (SMILES): Cc1ccc(C(=O)NCc2ccncc2)cc1S(=O)(=O)Nc1cccc(C)c1C
- cell number change: 5.49%

Structure (SMILES): O=C(c1cc(Cl)nc2ccccc12)N1CCN(Cc2ccc3c(c2)OCO3)CC1
- cell number change: 18.2%
- AC50 [2]: 0.184 µM [rising, full curve, poor fit]
- AC50 [1]: 0.206 µM [rising, full curve]

Structure (SMILES): COc1ccc(N(CC(=O)NCc2ccc(F)cc2)C(=O)c2snc(C(N)=O)c2N)cc1
- cell number change: 2.92%

Structure (SMILES): CN(C)c1cccc(NC(=O)c2ccco2)c1
- cell number change: -25.4%
- AC50 [1]: 14.6 µM [falling, partial curve, poor fit]

Structure (SMILES): Cn1c(=O)c2sccc2n2c(CCCC(=O)NC3CCN(Cc4ccccc4)CC3)nnc12
- cell number change: -4.58%
- AC50 [1]: 29.1 µM [falling, single point]

Structure (SMILES): CCCS(=O)(=O)c1nc(S(=O)(=O)c2ccc(C)cc2)c(N2CCC(O)CC2)s1
- cell number change: -48.5%
- AC50 [2]: 32.6 µM [falling, single point]
- AC50 [1]: 23.1 µM [falling, single point]

Structure (SMILES): CCOC(=O)C1=C(COC(=O)c2cc(S(=O)(=O)N(C)C)ccc2C)NC(=O)NC1C (centres undefined)
- cell number change: -0.551%
- AC50 [2]: 6.51 µM [rising, single point]
- AC50 [1]: 23.1 µM [rising, partial curve]

Structure (SMILES): O=C(NCCCn1ccnc1)c1cc(S(=O)(=O)N2CCOCC2)c(Cl)cc1Cl
- cell number change: 6.25%

Structure (SMILES): Cn1nc(OCC(=O)O)cc1C(F)(F)F
- cell number change: 13.5%
- AC50 [2]: 6.51 µM [falling, single point]
- AC50 [1]: 6.51 µM [falling, single point]

Structure (SMILES): OCC(CO)(CO)n1cnnn1
- cell number change: 5.09%

Structure (SMILES): O=C(NCC1CCCO1)C1CC(c2ccccc2Cl)=NO1 (centres undefined)
- cell number change: 9.37%

Structure (SMILES): CCOC(=O)C1CCN(C(=O)c2ccccc2NS(=O)(=O)c2ccc(F)c(F)c2)CC1
- cell number change: 14.7%
- AC50 [1]: 2.06 µM [rising, single point]

Structure (SMILES): Cc1ccccc1NC(=O)Cc1nc(COC(=O)CSc2ccccc2)cs1
- cell number change: 20.4%
- AC50 [2]: 0.103 µM [rising, full curve, poor fit]
- AC50 [1]: 29.1 µM [rising, single point]

Structure (SMILES): N#CC(c1ccc(Cl)nn1)c1c(F)cccc1Cl (centres undefined)
- cell number change: -11.1%

Structure (SMILES): CCCC1(CCC)NC(=O)NC1=O
- cell number change: -47.6%
- AC50 [2]: 29.1 µM [falling, single point]
- AC50 [1]: 25.9 µM [falling, single point]

Structure (SMILES): Cc1ccc(-c2nc(CSCC(=O)N3CCN(C(=O)c4ccco4)CC3)c(C)o2)cc1
- cell number change: -17.6%
- AC50 [1]: 0.326 µM [falling, full curve]

Structure (SMILES): CC(C(=O)Nc1sc2c(c1C#N)CCCCC2)N1C(=O)c2ccccc2C1=O (centres undefined)
- cell number change: 1.57%
- AC50 [1]: 0.517 µM [falling, full curve, poor fit]
